Data as given in PubChem BioAssay AID1224828 (NIAID, 2016)

Purpose: 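Find genes required for NF-kappaB p65 moving into the nucleus after LPS in mouse macrophages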 (primary screen)
System: mouse RAW264.7 G9 macrophage reporter cells (GFP-p65, Tnf promoter-mCherry)
Reagent: siRNA pool against mouse genes, 100 nM
Duration: 2 days siRNA transfection, then 40 min LPS before fixation
Treatment: LPS (Salmonella minnesota R595) at 10 ng/ml
Measured: 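Microscopy ratio of nuclear to perinuclear-ring GFP-p65 signal, scaled to the plate median; gene score is the average of two replicate robust z-scores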
Scale: p65 translocation robust z-score: higher = more nuclear NF-kappaB p65 after LPS than the plate median; nuclear/cytoplasmic p65 ratio: higher = more nuclear NF-kappaB p65
Rule for the call: 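Active if robust z is above 3.3 (negative regulators) or below -1.56, the Tlr4 control median (positive regulators); activity score 50 or more; control wells not called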
Calls: active = hit (p65 shift raised or lowered); inactive = no clear change
Here is a random part of about 17,000 reagents. In the full data, 762 (4.5%) got an active call. 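Active calls include both raised and lowered p65 entry, mostly lowered; wells with fewer than 50 cells lack a z-score.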 Raw values vary from plate to plate and are shown uncorrected. Entries without a mark were called inactive. The numbers tell different reagents against one gene apart. Reagent sequences are not shown.

gene symbol	pool no.	p65 translocation robust z-score	nuclear/cytoplasmic p65 ratio, rep 1	nuclear/cytoplasmic p65 ratio, rep 2	low cell count flag
Nop53 (GeneID 68077)	1	-0.96	1.32	1.25	enough cells to score
Dkkl1 (GeneID 50722)	1	-1.28	1.31	1.59	enough cells to score
Ablim3 (GeneID 319713)	1	0.23	1.61	1.58	enough cells to score
Sclt1 (GeneID 67161)	1	1.72	1.63	1.55	enough cells to score
Snap23 (GeneID 20619)	1		1.62	1.26	fewer than 50 cells per well; well left out of scoring
Or52d3 (GeneID 57250)	1	0.58	1.52	1.34	enough cells to score
Olfm1 (GeneID 56177)	1		1.56	1.64	fewer than 50 cells per well; well left out of scoring
Tfap2b (GeneID 21419)	1	-0.18	1.43	1.56	enough cells to score
Prl2c2 (GeneID 18811)	1	1.08	1.54	1.32	enough cells to score
Mettl8 (GeneID 228019)	1	0.31	1.63	1.89	enough cells to score
Kcnj4 (GeneID 16520)	1	0.52	1.69	1.44	enough cells to score
Gabra3 (GeneID 14396)	1	-0.76	1.15	1.3	enough cells to score
Folh1 (GeneID 53320)	1	-1.33	1.29	1.22	enough cells to score
Phykpl (GeneID 72947)	1	0.22	1.18	1.28	enough cells to score
Epc2 (GeneID 227867)	1	1.84	1.85	1.68	enough cells to score
Topors (GeneID 106021)	1	-0.62	1.42	1.44	enough cells to score
Fastkd2 (GeneID 75619)	1	-0.28	1.22	1.25	enough cells to score
Mrgprd (GeneID 211578)	1	1.18	1.81	1.62	enough cells to score
4732427B05	1	-1.46	1.16	1.09	enough cells to score
Pkd1l2 (GeneID 76645)	1	0.42	1.49	1.22	enough cells to score
Nop2 (GeneID 110109)	1	0.5	1.56	1.46	enough cells to score
Alg1 (GeneID 208211)	1	0.76	1.62	1.9	enough cells to score

Copied from the entries so far (4 entries):
gene symbol	pool no.	p65 translocation robust z-score	nuclear/cytoplasmic p65 ratio, rep 1	nuclear/cytoplasmic p65 ratio, rep 2	low cell count flag
Fastkd2 (GeneID 75619)	1	-0.28	1.22	1.25	enough cells to score
Mrgprd (GeneID 211578)	1	1.18	1.81	1.62	enough cells to score
4732427B05	1	-1.46	1.16	1.09	enough cells to score
Pkd1l2 (GeneID 76645)	1	0.42	1.49	1.22	enough cells to score

The listing continues:
gene symbol	pool no.	p65 translocation robust z-score	nuclear/cytoplasmic p65 ratio, rep 1	nuclear/cytoplasmic p65 ratio, rep 2	low cell count flag
Elapor2 (GeneID 231014)	1	2.18	1.69	1.89	enough cells to score
Arhgap8 (GeneID 73167)	1		1.36	1.39	fewer than 50 cells per well; well left out of scoring
Ino80b (GeneID 70020)	1		1.26	1.15	fewer than 50 cells per well; well left out of scoring
Ttyh1 (GeneID 57776)	1	-1.11	1.29	1.06	enough cells to score
Vamp1 (GeneID 22317)	1	-1.7 (active)	1.15	1.05	enough cells to score
Cacna1f (GeneID 54652)	1	-0.4	1.59	1.52	enough cells to score
Habp4 (GeneID 56541)	1	-0.47	1.75	1.32	enough cells to score
Cpxm2 (GeneID 55987)	1	0.37	1.62	1.86	enough cells to score
Mst1 (GeneID 15235)	1	-1	1.3	1.23	enough cells to score
Adgrg2 (GeneID 237175)	1		1.81	1.51	fewer than 50 cells per well; well left out of scoring
Wif1 (GeneID 24117)	1		1.71	1.2	fewer than 50 cells per well; well left out of scoring
Slc6a1 (GeneID 232333)	1	1.37	1.56	1.43	enough cells to score
Cebpd (GeneID 12609)	1	-2 (active)	1.25	1.5	enough cells to score
Efnb2 (GeneID 13642)	1	-0.99	1.43	1.23	enough cells to score
Or7g17 (GeneID 259070)	1	0.65	1.56	1.32	enough cells to score
Cysltr2 (GeneID 70086)	1	-0.41	1.5	1.47	enough cells to score
Nle1 (GeneID 217011)	1	-2.19 (active)	1.23	1.23	enough cells to score
Rarres2 (GeneID 71660)	1	-1.12	1.39	1.33	enough cells to score
Commd5 (GeneID 66398)	1	-0.96	1.46	1.59	enough cells to score
Pym1 (GeneID 78428)	1	1.05	1.49	1.7	enough cells to score
Aldh3a1 (GeneID 11670)	1	-0.94	1.49	1.46	enough cells to score
Mettl1 (GeneID 17299)	1	0.05	1.69	1.58	enough cells to score
Rbm39 (GeneID 170791)	1	1.23	1.5	1.35	enough cells to score
Or10ak7 (GeneID 258394)	1	0.78	1.73	1.53	enough cells to score
Or10ak7 (GeneID 258394)	2	0.36	1.6	1.53	enough cells to score
Slco4c1 (GeneID 227394)	1		1.29	1.48	fewer than 50 cells per well; well left out of scoring
Mapk14 (GeneID 26416)	1		1.58	1.4	fewer than 50 cells per well; well left out of scoring
Slc31a2 (GeneID 20530)	1		1.53	1.13	fewer than 50 cells per well; well left out of scoring
Nanp (GeneID 67311)	1	-0.61	1.47	1.58	enough cells to score
Rps27l (GeneID 67941)	1	0.65	1.47	1.33	enough cells to score
Gpr83 (GeneID 14608)	1		1.39	1.51	fewer than 50 cells per well; well left out of scoring
Fbxl4 (GeneID 269514)	1	0.43	1.5	1.44	enough cells to score
Pigx (GeneID 72084)	1		1.54	1.31	fewer than 50 cells per well; well left out of scoring
Syt7 (GeneID 54525)	1	-1.96 (active)	1.11	0.901	enough cells to score
Cep68 (GeneID 216543)	1	-0.48	1.59	1.66	enough cells to score
Myct1 (GeneID 68632)	1	0.34	1.84	1.64	enough cells to score
Fbxo16 (GeneID 50759)	1	0.67	1.78	1.47	enough cells to score
